Experimental data: PubChem BioAssay AID652272 (Drosophila RNAi Screening Center, 2013)
Aim: 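Genome-wide knock-down search for components of Hedgehog signalling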 (primary screen). Cell system: Drosophila clone 8 (Cl8) cells. Knock-down reagent: long dsRNA against Drosophila genes. Read-out: 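Plate reader light from a firefly reporter under a ptc promoter fragment that responds to Hedgehog, with Renilla light as transfection reference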. Reading the numbers: firefly Hh reporter signal: higher = more ptc reporter light; Renilla reference signal: higher = more Renilla control light. Call rule: 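Called a hit if the two-replicate mean z-score lies below -2 or above +3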. Calls: active = hit: reporter lowered or raised; inactive = not a hit.
In all, the deposit lists about 21,000 reagents; this is an unselected part of those that have a named target and a result. In the full data, 503 (2.4%) got an active call. 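Raw plate light values, not normalised; calls rest on replicate z-scores that were not deposited; hits include reporter decreases as well as increases.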 Entries without a mark were called inactive. Not given: the amount of reagent, the time to read-out.

For MKP-4 (GeneID 32963) [DRSC19567], how do the results read?
firefly Hh reporter signal, replicate 1: 1.44e5; firefly Hh reporter signal, replicate 2: 1.63e5; Renilla reference signal, replicate 1: 3661; Renilla reference signal, replicate 2: 3760

For CG11839 (GeneID 43006) [DRSC14398], how do the results read?
firefly Hh reporter signal, replicate 1: 6.16e5; firefly Hh reporter signal, replicate 2: 92997; Renilla reference signal, replicate 1: 32118; Renilla reference signal, replicate 2: 3239

What is on record for Gsc (GeneID 33240) [DRSC00755]?
firefly Hh reporter signal, replicate 1: 97337; firefly Hh reporter signal, replicate 2: 84517; Renilla reference signal, replicate 1: 2562; Renilla reference signal, replicate 2: 2058

With CG43315 (GeneID 12798419) [DRSC06296], how do the results read?
firefly Hh reporter signal, replicate 1: 1.04e5; firefly Hh reporter signal, replicate 2: 40485; Renilla reference signal, replicate 1: 2700; Renilla reference signal, replicate 2: 3331

How did the screen score futsch (GeneID 5740544) [DRSC17688]?
firefly Hh reporter signal, replicate 1: 4.87e5; firefly Hh reporter signal, replicate 2: 2.41e5; Renilla reference signal, replicate 1: 24972; Renilla reference signal, replicate 2: 5045

How did the screen score futsch (GeneID 5740544) [DRSC17949]?
firefly Hh reporter signal, replicate 1: 68683; firefly Hh reporter signal, replicate 2: 4.06e5; firefly Hh reporter signal, replicate 3: 1.93e5; Renilla reference signal, replicate 1: 1545; Renilla reference signal, replicate 2: 4507

Which result is listed for futsch (GeneID 5740544) [DRSC17952]?
firefly Hh reporter signal, replicate 1: 1.08e5; firefly Hh reporter signal, replicate 2: 1.11e5; Renilla reference signal, replicate 1: 1866; Renilla reference signal, replicate 2: 3808

For futsch (GeneID 5740544) [DRSC18543], what does the deposit list?
firefly Hh reporter signal, replicate 1: 62523; firefly Hh reporter signal, replicate 2: 1.88e5; Renilla reference signal, replicate 1: 1110; Renilla reference signal, replicate 2: 7819

What is on record for egg (GeneID 37962) [DRSC04119]?
firefly Hh reporter signal, replicate 1: 1.12e5; firefly Hh reporter signal, replicate 2: 78192; Renilla reference signal, replicate 1: 4275; Renilla reference signal, replicate 2: 2230

How did the screen score Decay (GeneID 42008) [DRSC16930]?
firefly Hh reporter signal, replicate 1: 98738; firefly Hh reporter signal, replicate 2: 80490; Renilla reference signal, replicate 1: 3188; Renilla reference signal, replicate 2: 276

What is on record for RpL7A (GeneID 31588) [DRSC18709]?
firefly Hh reporter signal, replicate 1: 22902 (active); firefly Hh reporter signal, replicate 2: 44744; Renilla reference signal, replicate 1: 1595; Renilla reference signal, replicate 2: 4555

With CanA1 (GeneID 43670) [DRSC16600], what does the deposit list?
firefly Hh reporter signal, replicate 1: 1.20e5; firefly Hh reporter signal, replicate 2: 1.37e5; Renilla reference signal, replicate 1: 3776; Renilla reference signal, replicate 2: 3772

For CG15358 (GeneID 33366) [DRSC00388], how do the results read?
firefly Hh reporter signal, replicate 1: 97560; firefly Hh reporter signal, replicate 2: 1.09e5; Renilla reference signal, replicate 1: 2304; Renilla reference signal, replicate 2: 2643

For Marf1 (GeneID 49895) [DRSC03747], what was measured?
firefly Hh reporter signal, replicate 1: 74119; firefly Hh reporter signal, replicate 2: 65595; Renilla reference signal, replicate 1: 2149; Renilla reference signal, replicate 2: 6305

With Marf1 (GeneID 49895) [DRSC03774], what was measured?
firefly Hh reporter signal, replicate 1: 1.02e5; firefly Hh reporter signal, replicate 2: 2.32e5; Renilla reference signal, replicate 1: 2657; Renilla reference signal, replicate 2: 9605

How did the screen score CG31681 (GeneID 318882) [DRSC00107]?
firefly Hh reporter signal, replicate 1: 5.74e5; firefly Hh reporter signal, replicate 2: 2.96e5; Renilla reference signal, replicate 1: 32793; Renilla reference signal, replicate 2: 12234

How did the screen score Rbpn-5 (GeneID 37395) [DRSC04440]?
firefly Hh reporter signal, replicate 1: 89728; firefly Hh reporter signal, replicate 2: 44123; Renilla reference signal, replicate 1: 3389; Renilla reference signal, replicate 2: 1677

What is on record for CG18754 (GeneID 59145) [DRSC15387]?
firefly Hh reporter signal, replicate 1: 4.46e5; firefly Hh reporter signal, replicate 2: 98780; Renilla reference signal, replicate 1: 23685; Renilla reference signal, replicate 2: 3025

Which result is listed for CNMaR (GeneID 39127) [DRSC08992]?
firefly Hh reporter signal, replicate 1: 75500; firefly Hh reporter signal, replicate 2: 1.55e5; Renilla reference signal, replicate 1: 2068; Renilla reference signal, replicate 2: 6669

For CNMaR (GeneID 39127) [DRSC10224], what was measured?
firefly Hh reporter signal, replicate 1: 30311; firefly Hh reporter signal, replicate 2: 44416; firefly Hh reporter signal, replicate 3: 52472; Renilla reference signal, replicate 1: 4579; Renilla reference signal, replicate 2: 3673

For NetA (GeneID 32398) [DRSC20261], how do the results read?
firefly Hh reporter signal, replicate 1: 72515; firefly Hh reporter signal, replicate 2: 2.02e5; Renilla reference signal, replicate 1: 2376; Renilla reference signal, replicate 2: 7360
